# Some of the results follow. These are further read-outs of the screen, such as a control signal, another cell line or another target. No call is given for them. Most of these compounds were active or inconclusive in the main read-out, so they are no random draw. Words in brackets tell the shape of the fitted curve; partial curves, single points and poor fits give uncertain potencies.
# Assay: qHTS Assay for Lipid Storage Modulators in Drosophila S3 Cells;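 as to cell number change: cells counted by Cell Tracker Red CMTPX staining in the red channel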
# Conditions: BODIPY lipid droplet fluorescence, 18-24 h; for cell number change: measured here: cell count max response, cells fed with added oleic acid
# How it was run: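 Drosophila S3 cells got compounds at several concentrations plus oleic acid (400 uM solution). Laser-scanning cytometry with 488 nm excitation read lipid droplets at 500-530 nm and cells at 575-640 nm. Percent activity was relative to 20 uM Triacsin C.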
# [1] = measured here: cell number channel AC50, cells fed with added oleic acid
# [2] = measured here: lipid fluorescence (Fed channel) AC50, cells fed with added oleic acid
Compound,cell number change [%],AC50 [1],AC50 [2]
O=C(Nc1ccccc1)c1ccc(Nc2c([N+](=O)[O-])cc([N+](=O)[O-])c3ccccc23)cc1,-29.7,–,–
C=CCN(CC=C)C(=O)COC(=O)c1n[nH]c2ccccc12,59.7,"18.4 µM [rising, single point]",–
Cn1cc([N+](=O)[O-])c(C(=O)NCC(=O)O)n1,-25.7,"0.164 µM [rising, full curve, poor fit]",–
O=S(=O)(c1ccc(Br)cc1)N1CCCN(Cc2ccccc2F)CC1,32,"20.6 µM [rising, single point]",–
COc1ccc(OC)c(NC(=O)c2c3c(nc4ccccc24)CCC3)c1,2.59,–,–
O=C(Nc1ccccc1C(F)(F)F)C(O)(c1ccccc1)C1CCCCC1 (centres undefined),-8.47,–,"0.411 µM [falling, full curve]"
Cc1cccc(NC(=O)c2cc(-c3ccccn3)nc3ccccc23)c1C,72.6,–,–
Cc1ccccc1OCc1nc2ccccc2c(=O)n1/N=C/c1cn[nH]c1-c1ccc(Br)cc1,–,"0.82 µM [falling, full curve]",–
CCn1c(SCC(=O)N2CCc3ccccc32)nnc1-c1ccco1,-12,–,"13 µM [falling, partial curve, poor fit]"
OCc1nc2nc(Cl)c(Cl)nc2[nH]1,-48.5,"14.6 µM [falling, partial curve]","25.9 µM [falling, partial curve]"
Cc1ccc(C)c(OCC(=O)Nc2ccccc2N2CCCC2)c1,27.8,–,"29.1 µM [rising, single point]"
O=C(NCC(c1ccco1)N1CCCC1)c1cccc(S(=O)(=O)N2CCOCC2)c1 (centres undefined),14.9,–,"1.46 µM [falling, full curve, poor fit]"
CC(=O)NCCc1c(C)n(Cc2ccccc2)c2ccccc12,-5.49,–,"6.51 µM [falling, single point]"
CC(=O)Nc1c(C(=O)O)[nH]c2ccccc12,-45.3,"0.731 µM [falling, full curve, poor fit]","13 µM [falling, partial curve]"
C/C(CC(=O)NCc1ccco1)=N\NC(=O)CC#N,-14,–,"0.0731 µM [falling, full curve, poor fit]"
C=CCn1c(=O)c2ccccc2n2c(SCC(=O)Nc3cc(C)on3)nnc12,212,"0.461 µM [rising, full curve, poor fit]","0.517 µM [rising, full curve]"
N/C(=N\OC(=O)c1ccccc1F)c1cccc([N+](=O)[O-])c1,1.72,–,–
CC(C)n1c(SC2CCOC2=O)nc2ccccc21 (centres undefined),7.82,–,"23.1 µM [falling, partial curve]"
CCOCCn1c(=O)c2c(nc3n2CCN3c2ccc(C)c(C)c2)n(C)c1=O,20.6,–,"32.6 µM [rising, single point]"

# Another view of 2 compounds above.
Compound | cell number change [%] | AC50 [1] | AC50 [2]
O=C(Nc1ccccc1)c1ccc(Nc2c([N+](=O)[O-])cc([N+](=O)[O-])c3ccccc23)cc1 | -29.7 | – | –
C=CCN(CC=C)C(=O)COC(=O)c1n[nH]c2ccccc12 | 59.7 | 18.4 µM [rising, single point] | –

# (further entries)

Compound,cell number change [%],AC50 [1],AC50 [2]
Cc1cc(=O)oc2c3c(cc(OCC(=O)N[C@@H](CC(C)C)C(=O)O)c12)OC(C)(C)CC3,27.9,"0.0164 µM [rising, full curve, poor fit]","4.11 µM [rising, full curve]"
COc1ccc(C2SCC(=O)N2c2ccc(OC)cc2)cc1 (centres undefined),13,–,"0.291 µM [rising, full curve, poor fit]"
CCOc1cc(C2C(C#N)=C(N)Oc3n[nH]c(-c4ccccc4)c32)ccc1O (centres undefined),-16.9,–,"9.2 µM [falling, partial curve]"
C=CCn1c(=NC(=O)c2ccco2)sc2cc(C(=O)OCC)ccc21,3.15,–,"25.9 µM [rising, partial curve, poor fit]"
COc1ccccc1Nc1nnc(SCC(=O)NC2CCCC2)s1,-2.63,–,"29.1 µM [falling, single point]"
O=C(CCc1nc2ccccc2s1)OCC(=O)c1ccc[nH]1,4.22,"0.058 µM [falling, full curve]","0.164 µM [falling, full curve]"
COc1ccc(-c2c(-c3ccc(O)cc3O)n[nH]c2C(F)(F)F)cc1,-54.7,"32.6 µM [falling, single point]","25.9 µM [falling, partial curve]"
CCOC(=O)[C@H]1[C@H]2COc3ccc(Cl)cc3[C@@H]2N2C(=O)CN(Cc3ccc(C)cc3)C(=O)[C@@]12C,12.4,–,"1.64 µM [rising, partial curve]"
CC(=O)Nc1ccc(-n2c(C)nc(=O)c(-c3ccccc3)c2C)cc1,–,–,"29.1 µM [falling, single point]"
Cc1ccc(S(=O)(=O)N2CCC(NC(=O)c3cccc(C)c3)CC2)cc1,24.2,–,"0.411 µM [falling, single point]"
CCOC(=O)c1oc2ccccc2c1COC(=O)C(C)NC(=O)c1ccco1 (centres undefined),-25.9,–,"23.1 µM [falling, single point]"
Cc1ccc(NC(=O)CSCc2cc(=O)n3ccsc3n2)c(C)c1,40.2,"8.2 µM [rising, partial curve]","29.1 µM [rising, partial curve]"
O=C(c1ccc(Cl)c(Cl)c1)c1cc(-c2ccccn2)c(N2CCOCC2)s1,10.9,–,"16.4 µM [falling, single point]"
Cc1c(Cl)c([N+](=O)[O-])nn1CCCC(=O)Nc1c(Cl)cccc1Cl,5.3,–,"2.31 µM [rising, partial curve]"
CCCCCCc1c(C)c2ccc(OCC(=O)N3CCC[C@H]3C(=O)O)c(C)c2oc1=O,2.7,–,–
CCC(=O)c1cn(CC(=O)NCc2cccnc2)c2ccccc12,34.9,"29.1 µM [rising, single point]",–
CCOc1ccccc1CN1CCNC(=O)C1CC(=O)N(C)Cc1cnccn1 (centres undefined),29.2,–,"29.1 µM [rising, single point]"
CC(OC(=O)/C=C/c1ccccc1)C(=O)Nc1ccc(C(N)=O)cc1 (centres undefined),2.2,–,–
Cc1ccc(S(=O)(=O)N2CCCCC2)cc1NC(=O)COC(=O)c1c(F)cccc1F,–,"6.51 µM [falling, single point]",–
